Assay results published in PMC5703050.
No constants are given. Whether binding was seen depends on the method and setting. Binding seen in cells or lysates may run through a third protein. Some results given as binding are weak or reduced against the parent protein; the word gives no strength. Tags and fused reporters may be left off the sequences shown. Values belong to the molecule of their own block, whether it stands above or below them.

Protein sequences, listed by entry. Tags and fused reporters are not part of them.
UniProt P14635: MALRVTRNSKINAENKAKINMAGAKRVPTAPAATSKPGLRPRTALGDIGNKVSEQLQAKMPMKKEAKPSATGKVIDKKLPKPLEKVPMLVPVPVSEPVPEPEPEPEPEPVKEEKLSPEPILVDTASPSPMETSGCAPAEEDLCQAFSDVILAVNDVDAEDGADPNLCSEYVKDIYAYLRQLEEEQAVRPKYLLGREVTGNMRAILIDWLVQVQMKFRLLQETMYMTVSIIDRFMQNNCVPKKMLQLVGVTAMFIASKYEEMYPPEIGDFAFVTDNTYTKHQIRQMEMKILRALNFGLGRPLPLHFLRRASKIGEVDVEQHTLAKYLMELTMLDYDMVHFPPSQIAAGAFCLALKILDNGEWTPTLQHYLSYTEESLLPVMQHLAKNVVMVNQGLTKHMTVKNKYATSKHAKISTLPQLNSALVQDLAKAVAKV

Tests used:
[1] = molecular target: T1, TREX1-V5 wild type (human) (UniProt Q9NSU2); test: co-IP; TREX1-V5 and cyclin B1-Myc6 overexpressed in 293T cells arrested in mitosis by nocodazole; extracts immunoprecipitated with anti-V5 agarose beads, cyclin B detected with anti-Myc antibody
T1 sequence: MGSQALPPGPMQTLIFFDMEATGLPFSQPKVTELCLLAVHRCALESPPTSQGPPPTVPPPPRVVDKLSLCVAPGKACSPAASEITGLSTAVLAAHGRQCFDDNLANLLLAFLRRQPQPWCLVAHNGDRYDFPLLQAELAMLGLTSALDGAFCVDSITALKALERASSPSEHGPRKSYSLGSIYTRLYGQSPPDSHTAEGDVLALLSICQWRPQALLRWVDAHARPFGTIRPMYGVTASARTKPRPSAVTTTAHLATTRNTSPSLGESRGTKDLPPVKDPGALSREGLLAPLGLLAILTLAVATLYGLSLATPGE

Myc-RPN1 = molecular target: T2, Myc-RPN1 (UniProt P04843); test: co-IP; V5-tagged WT, mutant or truncated TREX1 and Myc-RPN1 co-expressed in 293T cells; IP with anti-Myc and Dynabeads Protein G overnight at 4°C; IP buffer 20 mM Tris-HCl pH 7.4, 150 mM NaCl, 0.5% NP-40; washes with 500 mM NaCl and 50 mM NaCl; immunoblot
T2 sequence: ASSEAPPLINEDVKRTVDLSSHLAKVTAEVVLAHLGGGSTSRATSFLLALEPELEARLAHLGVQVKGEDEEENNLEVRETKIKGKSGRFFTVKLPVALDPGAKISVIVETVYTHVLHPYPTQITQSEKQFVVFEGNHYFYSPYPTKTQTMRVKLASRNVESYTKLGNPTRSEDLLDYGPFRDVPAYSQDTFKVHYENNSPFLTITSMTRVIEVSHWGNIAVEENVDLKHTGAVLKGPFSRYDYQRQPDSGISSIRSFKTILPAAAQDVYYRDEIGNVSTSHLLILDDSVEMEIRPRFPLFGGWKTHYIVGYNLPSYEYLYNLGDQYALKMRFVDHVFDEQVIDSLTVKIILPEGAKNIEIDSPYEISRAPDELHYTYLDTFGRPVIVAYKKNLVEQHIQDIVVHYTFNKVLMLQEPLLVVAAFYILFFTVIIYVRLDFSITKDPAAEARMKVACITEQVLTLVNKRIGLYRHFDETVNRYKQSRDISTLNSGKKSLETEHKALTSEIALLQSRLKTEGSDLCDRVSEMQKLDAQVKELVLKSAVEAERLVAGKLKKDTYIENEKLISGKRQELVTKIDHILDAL

Molecule: Cyclin B1-Myc6 (from UniProt P14635 1-433)
binding [1]: binds

B2: TREX1 1-290, V5-tagged (domain or fragment, UniProt Q9NSU2-3 1-290)
chain: MGSQALPPGPMQTLIFFDMEATGLPFSQPKVTELCLLAVHRCALESPPTSQGPPPTVPPPPRVVDKLSLCVAPGKACSPAASEITGLSTAVLAAHGRQCFDDNLANLLLAFLRRQPQPWCLVAHNGDRYDFPLLQAELAMLGLTSALDGAFCVDSITALKALERASSPSEHGPRKSYSLGSIYTRLYGQSPPDSHTAEGDVLALLSICQWRPQALLRWVDAHARPFGTIRPMYGVTASARTKPRPSAVTTTAHLATTRNTSPSLGESRGTKDLPPVKDPGALSREGLLAP
binding (Myc-RPN1): binds

B5: TREX1 S78A/S261A, V5-tagged (protein, UniProt Q9NSU2-3 1-314)
chain: MGSQALPPGPMQTLIFFDMEATGLPFSQPKVTELCLLAVHRCALESPPTSQGPPPTVPPPPRVVDKLSLCVAPGKACAPAASEITGLSTAVLAAHGRQCFDDNLANLLLAFLRRQPQPWCLVAHNGDRYDFPLLQAELAMLGLTSALDGAFCVDSITALKALERASSPSEHGPRKSYSLGSIYTRLYGQSPPDSHTAEGDVLALLSICQWRPQALLRWVDAHARPFGTIRPMYGVTASARTKPRPSAVTTTAHLATTRNTAPSLGESRGTKDLPPVKDPGALSREGLLAPLGLLAILTLAVATLYGLSLATPGE
binding (Myc-RPN1): binds

More lines, now with the values ahead:

binding (Myc-RPN1): binds
B1: TREX1-V5 wild type (protein, UniProt Q9NSU2-3 1-314)
chain: MGSQALPPGPMQTLIFFDMEATGLPFSQPKVTELCLLAVHRCALESPPTSQGPPPTVPPPPRVVDKLSLCVAPGKACSPAASEITGLSTAVLAAHGRQCFDDNLANLLLAFLRRQPQPWCLVAHNGDRYDFPLLQAELAMLGLTSALDGAFCVDSITALKALERASSPSEHGPRKSYSLGSIYTRLYGQSPPDSHTAEGDVLALLSICQWRPQALLRWVDAHARPFGTIRPMYGVTASARTKPRPSAVTTTAHLATTRNTSPSLGESRGTKDLPPVKDPGALSREGLLAPLGLLAILTLAVATLYGLSLATPGE

binding (Myc-RPN1): binds
B3: TREX1 truncation 1-272, V5-tagged (domain or fragment, UniProt Q9NSU2-3 1-272)
chain: MGSQALPPGPMQTLIFFDMEATGLPFSQPKVTELCLLAVHRCALESPPTSQGPPPTVPPPPRVVDKLSLCVAPGKACSPAASEITGLSTAVLAAHGRQCFDDNLANLLLAFLRRQPQPWCLVAHNGDRYDFPLLQAELAMLGLTSALDGAFCVDSITALKALERASSPSEHGPRKSYSLGSIYTRLYGQSPPDSHTAEGDVLALLSICQWRPQALLRWVDAHARPFGTIRPMYGVTASARTKPRPSAVTTTAHLATTRNTSPSLGESRGTKD

binding (Myc-RPN1): binds weakly
B4: TREX1 truncation 1-235, V5-tagged (domain or fragment, UniProt Q9NSU2-3 1-235)
chain: MGSQALPPGPMQTLIFFDMEATGLPFSQPKVTELCLLAVHRCALESPPTSQGPPPTVPPPPRVVDKLSLCVAPGKACSPAASEITGLSTAVLAAHGRQCFDDNLANLLLAFLRRQPQPWCLVAHNGDRYDFPLLQAELAMLGLTSALDGAFCVDSITALKALERASSPSEHGPRKSYSLGSIYTRLYGQSPPDSHTAEGDVLALLSICQWRPQALLRWVDAHARPFGTIRPMYGV
